Source: patent publication US20050118310A1, “Formulations of compounds derived from natural sources and their use with irradiation for food preservation” (priority 2001, published 2005)
Read-outs that look alike come from different tables or passages of the source. At least one read-out could not be matched to a standard name with certainty. Marks after values point to notes of the source that are not given here.

Tests used:
S. typhi = test: Irradiation sensitivity (D10) of S. typhi in ground beef; assay type: cell-based, Salmonella typhi (ATCC 19430)
E. coli = test: Irradiation sensitivity (D10) of E. coli in ground beef; assay type: cell-based, Escherichia coli (ATCC 25922); conditions: air, 4° C.
[1] = lower concentration: thymol 0.1%, tannic acid 0.38%, rosemary 0.5%, BHT 0.01%, trans-cinnamaldehyde […], carvacrol […], thyme 0.2%, BHA 0.01%, nisin 625 UI/g, EDTA 100 ppm, tetrasodium pyrophosphate 0.1%, carnosine 1.0%, ascorbic acid 0.5%
[2] = vs control, negative = protective effect, thymol 0.1%, tannic acid 0.38%, rosemary 0.5%, BHT 0.01%, trans-cinnamaldehyde […], carvacrol […], thyme 0.2%, BHA 0.01%, nisin 625 UI/g, EDTA 100 ppm, tetrasodium pyrophosphate 0.1%, carnosine 1.0%, ascorbic acid 0.5%

SMILES | D10(kGy) (S. typhi) | Increase in Sensitivity (S. typhi) [%] | D10(kGy) (E. coli; [1]) | Increase in Sensitivity (E. coli; [2]) [%] | D10(kGy) (S. typhi; ground beef, air, 4° C., concentration corresponding to MIC in ground beef: trans-cinnamaldehyde 0.89%, carvacrol 1.15%, thymol 1.6%, thyme 2.75%) | Increase in Sensitivity (S. typhi; vs control without compound, ground beef, air, 4° C., trans-cinnamaldehyde 0.89%, carvacrol 1.15%, thymol 1.6%, thyme 2.75%) [%] | D10(kGy) (E. coli; concentration corresponding to MIC in ground beef: trans-cinnamaldehyde […], thymol 1.15%, thyme 2.33%, carvacrol 0.88%) | Increase in Sensitivity (E. coli; vs control without compound, trans-cinnamaldehyde […], thymol 1.15%, thyme 2.33%, carvacrol 0.88%) [%]
O=C1O[C@H]([C@@H](O)CO)C(O)=C1O [Ascorbic acid] | 0.521 ± 0.0167^k kGy | 1.0 | 0.141 ± 0.0068^i kGy | −11.9 |  |  |  | 
Cc1cc(C(C)(C)C)c(O)c(C(C)(C)C)c1 [BHT, butylated hydroxytoluene] | 0.405 ± 0.0074^h kGy | 23.0 | 0.115 ± 0.0020^ef kGy | 8.7 |  |  |  | 
NCCC(=O)N[C@@H](Cc1cnc[nH]1)C(=O)O [Carnosine] | 0.494 ± 0.0246^j kGy | 6.1 | 0.133 ± 0.0075^h kGy | −5.6 |  |  |  | 
O=C(OC[C@H]1O[C@@H](OC(=O)c2cc(O)c(O)c(OC(=O)c3cc(O)c(O)c(O)c3)c2)[C@H](OC(=O)c2cc(O)c(O)c(OC(=O)c3cc(O)c(O)c(O)c3)c2)[C@@H](OC(=O)c2cc(O)c(O)c(OC(=O)c3cc(O)c(O)c(O)c3)c2)[C@@H]1OC(=O)c1cc(O)c(O)c(OC(=O)c2cc(O)c(O)c(O)c2)c1)c1cc(O)c(O)c(OC(=O)c2cc(O)c(O)c(O)c2)c1 [Tannic acid, tannic acid] | 0.302 ± 0.0080^d kGy | 42.6 | 0.106 ± 0.0012^cd kGy | 15.9 |  |  |  | 
Cc1ccc(C(C)C)c(O)c1 [Thymol, thymol] | 0.362 ± 0.0125^f kGy | 31.2 | 0.103 ± 0.0094^c kGy | 18.2 | 0.210 ± 0.0086^b kGy | 60.1 | 0.087 ± 0.0036^b kGy | 40.0
